Earlier results as cited in US20170226145A1, “METHODS OF EXTRACTION AND PURIFICATION FROM STEVIA REBAUDIANA OF COMPOSITIONS WITH ENHANCED REBAUDIOSIDE-M CONTENT, USES OF SAID COMPOSITION AND NATURAL SWEETENER COMPOSITIONS WITH SAID COMPOSITION” (GLG LIFE TECH CORPORATION, priority 2014, published 2017).

Conditions: Table 1, background data; cited from earlier work

Question: For Rebaudioside B, which Quality of taste is on record?
Answer: Bitter

Question: With `C=C1C[C@@]23CC[C@H]4[C@@](C)(CCC[C@@]4(C)C(=O)O[C@@H]4O[C@H](CO)[C@@H](O)[C@H](O)[C@H]4O)[C@@H]2CC[C@]1(O[C@@H]1O[C@H](CO)[C@@H](O)[C@H](O)[C@H]1O)C3` [Rubusoside] as the compound, how does the Quality of taste read?
Answer: Very bitter

Question: For `C=C1C[C@@]23CC[C@H]4[C@@](C)(CCC[C@@]4(C)C(=O)O[C@@H]4O[C@H](CO)[C@@H](O)[C@H](O)[C@H]4O)[C@@H]2CC[C@]1(O[C@@H]1O[C@H](CO)[C@@H](O)[C@H](O)[C@H]1O[C@@H]1O[C@@H](C)[C@H](O)[C@@H](O)[C@H]1O)C3` [Dulcoside A], which Quality of taste is on record?
Answer: Very bitter

Question: Which Quality of taste does the source give for `C=C1C[C@@]23CC[C@H]4[C@@](C)(CCC[C@@]4(C)C(=O)O[C@@H]4O[C@H](CO)[C@@H](O)[C@H](O)[C@H]4O)[C@@H]2CC[C@]1(O[C@@H]1O[C@H](CO)[C@@H](O)[C@H](O)[C@H]1O[C@@H]1O[C@H](CO)[C@@H](O)[C@H](O)[C@H]1O)C3` [Stevioside] here?
Answer: Bitter

Question: With `C=C1C[C@@]23CC[C@H]4[C@@](C)(CCC[C@@]4(C)C(=O)O[C@@H]4O[C@H](CO)[C@@H](O)[C@H](O)[C@H]4O[C@@H]4O[C@H](CO)[C@@H](O)[C@H](O)[C@H]4O)[C@@H]2CC[C@]1(O[C@@H]1O[C@H](CO)[C@@H](O)[C@H](O[C@@H]2O[C@H](CO)[C@@H](O)[C@H](O)[C@H]2O)[C@H]1O[C@@H]1O[C@H](CO)[C@@H](O)[C@H](O)[C@H]1O)C3` [Rebaudioside D] as the compound, how does the Quality of taste read?
Answer: Like sucrose

Question: For `C=C1C[C@@]23CC[C@H]4[C@@](C)(CCC[C@@]4(C)C(=O)O)[C@@H]2CC[C@]1(O[C@@H]1O[C@H](CO)[C@@H](O)[C@H](O)[C@H]1O[C@@H]1O[C@H](CO)[C@@H](O)[C@H](O)[C@H]1O)C3` [Steviolbioside], which Quality of taste is on record?
Answer: Unpleasant

Question: For `C=C1C[C@@]23CC[C@H]4[C@@](C)(CCC[C@@]4(C)C(=O)O[C@@H]4O[C@H](CO)[C@@H](O)[C@H](O)[C@H]4O[C@@H]4O[C@H](CO)[C@@H](O)[C@H](O)[C@H]4O)[C@@H]2CC[C@]1(O[C@@H]1O[C@H](CO)[C@@H](O)[C@H](O)[C@H]1O[C@@H]1O[C@H](CO)[C@@H](O)[C@H](O)[C@H]1O)C3` [Rebaudioside E], which Quality of taste is on record?
Answer: Like sucrose

Question: For Rebaudioside C, which Quality of taste is on record?
Answer: Biutter

Question: Which Quality of taste does the source give for `C=C1C[C@@]23CC[C@H]4[C@@](C)(CCC[C@@]4(C)C(=O)O)[C@@H]2CC[C@]1(O)C3` [Steviol] here?
Answer: Very bitter
